1 substance from article doi:10.1101/671792 can be followed below.

By UniProt entry, the sequences of proteins in these tests, tags left out. Residues count along the entry.
UniProt Q05513, residues 11-101: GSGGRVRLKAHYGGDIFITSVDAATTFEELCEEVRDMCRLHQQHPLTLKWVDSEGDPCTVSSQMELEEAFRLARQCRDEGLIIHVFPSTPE

This test has as its target PKCζ PB1 domain, residues 11-101 (pelletation assay) (human) (UniProt Q05513). As to the kind of experiment: sedimentation.

Results are given in words; binding and its absence hold for the method and conditions named.

For “PKCζ PB1 domain, residues 11-101 (pelletation assay) (from UniProt Q05513 11-101) (domain or fragment)”, the binding result is reported as “no binding”.
